Assay results: PubChem BioAssay AID743255 (National Center for Advancing Translational Sciences (NCATS), 2014)
The campaign covered roughly 390,000 compounds. About 910 (0.23%) were called active. The shares of active, inactive and inconclusive entries below differ from those in the screen. Calls come from the whole dose curve; as a rule, active = well fitted inhibition curve with a large enough effect; inconclusive = small, poorly fitted or top-dose-only effect; inactive = no such curve, though single readings can be large or run the other way. Potencies of inconclusive entries are doubtful fits and often do not repeat.
Note: nearly all actives have a fitted effect of over 60% in size.
Potency is the fitted concentration of half-maximal effect.

By UniProt entry, the sequences of proteins in these tests, tags left out. Where a name states a change or a piece, a line headed by the entry shows the natural chain unless it says otherwise.
UniProt O94782: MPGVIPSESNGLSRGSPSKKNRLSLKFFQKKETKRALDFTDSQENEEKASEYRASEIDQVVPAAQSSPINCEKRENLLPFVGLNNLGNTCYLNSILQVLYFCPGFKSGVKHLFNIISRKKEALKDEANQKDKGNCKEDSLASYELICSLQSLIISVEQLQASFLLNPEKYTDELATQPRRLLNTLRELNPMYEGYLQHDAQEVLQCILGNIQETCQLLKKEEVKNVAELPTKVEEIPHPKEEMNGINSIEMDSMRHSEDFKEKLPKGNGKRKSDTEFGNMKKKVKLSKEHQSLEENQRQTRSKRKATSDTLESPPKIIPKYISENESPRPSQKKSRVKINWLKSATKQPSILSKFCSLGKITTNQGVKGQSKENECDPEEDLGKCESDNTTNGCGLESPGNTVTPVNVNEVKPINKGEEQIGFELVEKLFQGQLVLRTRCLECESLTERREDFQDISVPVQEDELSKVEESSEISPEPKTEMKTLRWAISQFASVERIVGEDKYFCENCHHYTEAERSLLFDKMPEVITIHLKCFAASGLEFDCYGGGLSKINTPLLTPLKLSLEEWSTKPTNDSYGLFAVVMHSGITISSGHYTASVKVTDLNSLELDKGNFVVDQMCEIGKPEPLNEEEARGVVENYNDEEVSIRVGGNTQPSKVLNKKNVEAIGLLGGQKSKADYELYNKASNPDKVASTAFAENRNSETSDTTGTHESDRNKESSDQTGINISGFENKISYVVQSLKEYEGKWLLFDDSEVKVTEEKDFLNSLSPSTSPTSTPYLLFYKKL

Each molecule was assayed against Ubiquitin carboxyl-terminal hydrolase 1 (Homo sapiens) (UniProt O94782) (assay: Inhibitors of USP1/UAF1: Primary Screen). Details: recombinant USP1/UAF1, Ub-Rhodamine cleavage fluorescence; series mostly up to 57.1 µM.
Summary of the method: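 USP1/UAF1 complex at 1 nM was preincubated with compound for 15 min at room temperature, then Ub-Rho substrate (150nM final) was added. Fluorescence (480/540 nm) was read kinetically, 6 reads every 60 seconds.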
In the case of `CCOC(=O)C1CCCN(c2c(N3CCOCC3)c(=O)c2=O)C1` (stereo not given), the Potency is reported as inconclusive: 50.1 µM [inhibitor, partial curve, poor fit].
With `CN(C)C(=O)c1ccc2c(c1[N+](=O)[O-])C(=O)c1ccccc1C2=O` the Potency was “inactive”.
With `O=C(Cc1ccc(NC(=O)C2CCN(C(=O)c3ccccc3)CC2)cc1)Nc1ccc(C(=O)N2CCOCC2)cc1` the Potency was inconclusive: 0.316 µM [inhibitor, full curve, poor fit].
In the case of `CCc1c(-c2ccccc2)nc2ccccc2c1C(=O)NCc1ccc(C)cc1`, the Potency is reported as inconclusive: 0.316 µM [inhibitor, full curve, poor fit].
For `CN1C(=O)[C@@H]2[C@H](C1=O)[C@@H]1C(=O)Nc3ccccc3C(=O)N1[C@@H]2c1ccc(Br)cc1`, the Potency was inconclusive: 0.708 µM [inhibitor, full curve].
`Cc1cc(C)cc(NS(=O)(=O)c2ccc3[nH]cc(C(=O)NCc4ccccc4Cl)c(=O)c3c2)c1` was tested, and the Potency was inconclusive: 39.8 µM [inhibitor, partial curve, poor fit].
`COC(=O)c1ccc(Cn2nnc3c(=O)[nH]c(C4CCCN(S(=O)(=O)c5cccc(Cl)c5)C4)nc32)cc1` (stereo not given) was tested, and the Potency was inconclusive: 28.2 µM [inhibitor, partial curve].
`O=C(NCCCN1CCOCC1)c1ccc(Cl)c([N+](=O)[O-])c1` was tested, and the Potency was “inactive”.
For `CCC(C)NC(=O)C1=CC(c2ccc3c(c2)OCO3)=NS(=O)(=O)N1C` (stereo not given), the Potency was “inactive”.
With `COc1ccc(NC(=S)N/C(=N/CS(=O)(=O)c2ccccc2)c2ccccc2)cc1` the Potency was “inactive”.
For `Cc1ccc(NC(=O)c2nc[nH]c2C(=O)N[C@@H](C)C(=O)OC(C)(C)C)cc1`, the Potency was inconclusive: 50.1 µM [inhibitor, partial curve, poor fit].
For `CCOC(=O)C1=C(C)N=c2s/c(=C/c3cccc([N+](=O)[O-])c3O)c(=O)n2C1c1cc(OC)c(OC)c(OC)c1` (stereo not given), the Potency was “inactive”.
`CCN1CCN(C(=O)C(C)Sc2nc3nc(C)cc(C)n3n2)CC1` (stereo not given) was tested, and the Potency was inconclusive: 3.16 µM [inhibitor, partial curve].
`O=C(COC(=O)CCc1ccc(S(=O)(=O)N2CCOCC2)cc1)Nc1ccc(Cl)cn1` was tested, and the Potency was “inactive”.
`COc1ccc(Cc2nc3ccccc3n2Cc2ccccc2F)cc1` was tested, and the Potency was inconclusive: 5.62 µM [inhibitor, full curve, poor fit].
`Cc1ccc(C(=O)N/C(=C\c2ccc(F)cc2)C(=O)NCc2ccncc2)cc1` was tested, and the Potency was “inactive”.
`C[C@H]1COC(=O)[C@H](Cc2ccc(F)cc2)C/C=C\C[C@H](CC(=O)NCCO)C(=O)N1` was tested, and the Potency was inconclusive: 44.7 µM [inhibitor, partial curve, poor fit].
For `Cc1ccccc1CSc1ncc(CO)n1Cc1ccc(F)cc1`, the Potency was inconclusive: 0.282 µM [inhibitor, full curve, poor fit].
`O=C(O)c1ccc(N/N=C/c2cc3ccccc3nc2Cl)cc1` was tested, and the Potency was inconclusive: 44.7 µM [inhibitor, partial curve, poor fit].
For `CCc1cc(=O)oc2cc(C)cc(OC(C)C(=O)NC(Cc3c[nH]c4ccc(O)cc34)C(=O)O)c12` (stereo not given), the Potency was inconclusive: 0.0891 µM [inhibitor, full curve, poor fit].
With `COc1ccc(OC)c(C(=O)/C=C/c2ccccc2C(F)(F)F)c1` the Potency was “inactive”.
In the case of `CCOC(=O)c1c(C)n(-c2ccc(OC)cc2)c2ccc(O)c(CN(C)C)c12`, the Potency is reported as inconclusive: 28.2 µM [inhibitor, partial curve].
With `COc1cc(C(=O)NCCNC(=O)c2cnccn2)cc(OC)c1OC` the Potency was inconclusive: 0.447 µM [inhibitor, full curve, poor fit].
In the case of `CN1CC[C@]23c4ccccc4N[C@H]1[C@]21CCN(C)[C@H]3Nc2ccccc21`, the Potency is reported as inconclusive: 44.7 µM [inhibitor, partial curve, poor fit].
`Cc1ccc2[nH]c(C)c(/C=N/Nc3nc4ccccc4s3)c2c1` was tested, and the Potency was “inactive”.
In the case of `Cc1ccc(-c2[nH]nc3c2C(c2ccoc2)C(C#N)=C(N)O3)cc1C` (stereo not given), the Potency is reported as inconclusive: 17.8 µM [inhibitor, partial curve].
`CCCOc1cc(C)c(S(=O)(=O)NCc2cccs2)cc1C` was tested, and the Potency was inconclusive: 39.8 µM [inhibitor, partial curve].
With `C=CCCC1CN(CCCC)S(=O)(=O)c2c(F)cccc2O1` (stereo not given) the Potency was “inactive”.
In the case of `O=C(CCn1cnc2ccccc2c1=O)Nc1ccc(Cl)c(Cl)c1`, the Potency is reported as inconclusive: 14.1 µM [inhibitor, partial curve, poor fit].
`CCOc1ccc(NC(=O)c2ccccc2SC)cc1` was tested, and the Potency was “inactive”.
`CC(C)CC1C(=O)N(Cc2cn(CCC3OCCCO3)nn2)CCS(=O)(=O)N1Cc1ccc(-c2cccc(N(C)C)c2)cc1` (stereo not given) was tested, and the Potency was inconclusive: 0.282 µM [inhibitor, full curve, poor fit].
In the case of `CC(C)=C(NC(=O)c1ccccc1)C(=O)N1CCOCC1`, the Potency is reported as inconclusive: 35.5 µM [inhibitor, single point].
With `CC(C)N(Cc1nccn1C)C(=O)c1cc(COc2cccc(C(F)(F)F)c2)on1` the Potency was inconclusive: 7.94 µM [inhibitor, full curve].
For `Cc1ccc(NC(=O)CCC(=O)OC(C(=O)c2ccc(C)c(C)c2)c2ccccc2)c(C)c1` (stereo not given), the Potency was “inactive”.
For `CCOCCCn1c(SCC(=O)Nc2ccc(OC)cc2OC)nc2ccccc2c1=O`, the Potency was inconclusive: 0.251 µM [inhibitor, full curve, poor fit].
For `Cc1ccc(C)c(N2CCN(Cc3nnc(-c4ccccc4)o3)CC2)c1`, the Potency was inconclusive: 5.62 µM [inhibitor, single point].
With `O=C1[C@H]2[C@@H](c3ccccc3)N[C@]3(CCCN(Cc4ccc(Cl)cc4)C3=O)[C@H]2C(=O)N1Cc1ccccc1` the Potency was “inactive”.
In the case of `C/C(NCCc1ccccc1)=C1/CCOC1=O`, the Potency is reported as inconclusive: 44.7 µM [inhibitor, partial curve, poor fit].
With `O=C(CNS(=O)(=O)c1ccc(Cl)cc1)NNC(=O)c1cccnc1` the Potency was inconclusive: 3.55 µM [inhibitor, partial curve].
`Cc1cccc(-c2nc(Cn3c(SCc4cccc(C(F)(F)F)c4)nc4ccncc43)c(C)o2)c1` was tested, and the Potency was “inactive”.
